No constants are given. Whether binding was seen depends on the method and setting. Binding seen in cells or lysates may run through a third protein. Binding calls can cover weak binding; strength is not graded here.
Molecular target: T1, CD146 (mouse (endogenous in 10T1/2)) (UniProt Q8R2Y2)
T1 sequence: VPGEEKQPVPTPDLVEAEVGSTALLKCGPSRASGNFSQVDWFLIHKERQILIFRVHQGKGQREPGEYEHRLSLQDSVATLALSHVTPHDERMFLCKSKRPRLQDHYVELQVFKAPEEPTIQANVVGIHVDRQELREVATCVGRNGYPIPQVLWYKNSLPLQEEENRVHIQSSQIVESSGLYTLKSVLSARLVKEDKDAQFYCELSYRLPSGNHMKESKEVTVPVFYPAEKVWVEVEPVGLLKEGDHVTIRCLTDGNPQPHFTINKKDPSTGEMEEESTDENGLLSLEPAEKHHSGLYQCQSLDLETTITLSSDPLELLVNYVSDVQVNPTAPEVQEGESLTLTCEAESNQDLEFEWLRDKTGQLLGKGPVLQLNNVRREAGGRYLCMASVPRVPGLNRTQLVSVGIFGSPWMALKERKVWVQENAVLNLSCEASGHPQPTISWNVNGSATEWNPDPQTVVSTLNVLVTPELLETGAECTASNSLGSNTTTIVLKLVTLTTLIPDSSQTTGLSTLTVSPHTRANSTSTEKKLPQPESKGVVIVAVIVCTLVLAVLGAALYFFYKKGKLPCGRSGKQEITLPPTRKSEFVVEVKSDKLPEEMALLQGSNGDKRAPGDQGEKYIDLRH
Assay: co-IP; endogenous proteins in 10T1/2 cells, with PDGF-B (20 ng/mL); also after Cd146-siRNA, Cd146-siRNA plus a Cd146-expressing plasmid, or in the presence of mIgG or AA98 (50 μg/mL); which protein was precipitated is not told

binding: binds
Substance: PI3K p110 (mouse (endogenous in 10T1/2)) (enzyme)
